Drawing on publication PMC12048721, this text covers binding for two substances.

By UniProt entry, the sequences of proteins in these tests, tags left out. Where a name states a change or a piece, a line headed by the entry shows the natural chain unless it says otherwise.
UniProt Q99988: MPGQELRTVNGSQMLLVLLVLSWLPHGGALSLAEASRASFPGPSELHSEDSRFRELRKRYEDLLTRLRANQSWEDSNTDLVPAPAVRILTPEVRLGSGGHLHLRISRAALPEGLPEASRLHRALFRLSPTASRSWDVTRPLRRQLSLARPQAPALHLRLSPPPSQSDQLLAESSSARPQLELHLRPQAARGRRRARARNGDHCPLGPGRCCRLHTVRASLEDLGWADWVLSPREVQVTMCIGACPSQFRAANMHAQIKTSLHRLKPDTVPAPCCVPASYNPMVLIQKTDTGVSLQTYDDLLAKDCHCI

The target of this assay is T1, EpCAM-3XFLAG (human (cDNA from HCT116 cells)) (UniProt P16422).
T1 sequence: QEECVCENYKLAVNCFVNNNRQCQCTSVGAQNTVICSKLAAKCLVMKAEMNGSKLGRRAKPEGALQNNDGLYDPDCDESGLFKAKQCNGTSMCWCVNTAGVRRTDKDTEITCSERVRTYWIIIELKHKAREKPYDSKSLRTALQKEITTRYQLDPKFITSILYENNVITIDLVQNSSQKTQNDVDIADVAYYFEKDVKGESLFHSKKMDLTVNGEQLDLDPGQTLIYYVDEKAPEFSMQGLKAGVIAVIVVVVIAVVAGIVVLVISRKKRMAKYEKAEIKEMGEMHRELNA
The assay is described as follows: co-IP; HCT116, transfected; NP-40 lysis buffer (Tris-HCl 50 mM, pH 8.0, NaCl 150 mM, NP-40 1%); 1 mg lysate with 1 μg antibody overnight at 4 °C; Protein A/G magnetic beads; EpCAM pulled down with anti-FLAG, NAG-1/GDF15 detected with anti-V5.

No constants are given. Whether binding was seen depends on the method and setting. Binding seen in cells or lysates may run through a third protein. Binding can be weak; no strength is given. Tags and fused reporters may be left off the sequences shown.

NAG-1/GDF15 R193A (from UniProt Q99988): the binding result was “binds”.
For the substance NAG-1/GDF15 WT (from UniProt Q99988), the binding result is “binds”.
